# Experimental data from paper PMC6563020, “Protein Redox State Monitoring Studies of Thiol Reactivity” (Antioxidants, 2019).
# No constants are given. Whether binding was seen depends on the method and setting.
# Assays:
# [1] = target: Rat peroxiredoxin 6 (Prx6) (rat (endogenous in rat pulmonary artery smooth muscle cells)) (UniProt O35244); experiment: condition: only cells treated with H2O2 (200 μM) for 15 min; SDS-PAGE and immunoblot; rat pulmonary artery smooth muscle cells treated with H2O2 (200 uM) for 15 min; lysates on SDS-PAGE, immunoblot with Prx6 antibody; no Protein-SHifter
# [2] = target: Human peroxiredoxin 6 (Prx6) (human (endogenous in human pulmonary artery smooth muscle cells)) (UniProt P30041); experiment: non-reducing SDS-PAGE and immunoblot; human pulmonary artery smooth muscle cells treated with H2O2 for 15 min; lysates labelled with Protein-SHifter Plus, SDS-PAGE without BME, immunoblot with Prx6 antibody
binding [1],Binder,binding [2]
no binding,"Rat peroxiredoxin 6 (Prx6) (enzyme, UniProt O35244 1-224, looked up, Peroxiredoxin 6, rat, one cysteine only (catalytic Cys47); also called rat Prx6; source: endogenous, rat pulmonary artery smooth muscle cells (Cell Applications), in lysate) MPGGLLLGDEAPNFEANTTIGHIRFHDFLGDSWGILFSHPRDFTPVCTTELGRAAKLAPEFAKRNVKLIALSIDSVEDHFAWSKDINAYNGAAPTEKLPFPIIDDKDRDLAILLGMLDPAEKDEKGMPVTARVVFIFGPDKKLKLSILYPATTGRNFDEILRVVDSLQLTASNPVATPVDWKKGESVMVLPTLPEEEAKQLFPKGVFTKELPSGKKYLRYTPQP",
,"Human peroxiredoxin 6 (Prx6) (enzyme, UniProt P30041 1-224) MPGGLLLGDVAPNFEANTTVGRIRFHDFLGDSWGILFSHPRDFTPVCTTELGRAAKLAPEFAKRNVKLIALSIDSVEDHLAWSKDINAYNCEEPTEKLPFPIIDDRNRELAILLGMLDPAEKDEKGMPVTARVVFVFGPDKKLKLSILYPATTGRNFDEILRVVISLQLTAEKRVATPVDWKDGDSVMVLPTIPEEEAKKLFPKGVFTKELPSGKKYLRYTPQP",no binding (condition: cells treated with H2O2 for 15 min)
